Each structure is given as a SMILES string. The list shows a part of the results. Shown are side measurements of this screen, not its main read-out; they come without a call. Compounds called inactive in the main read-out are mostly missing here. The note in brackets gives the kind of curve behind each potency; many fits are weak.

Broadly, the AC50 is the concentration giving half of the maximal activity seen. A high value points to weaker potency.

A short description of the assay: qHTS Assay for Lipid Storage Modulators in Drosophila S3 Cells.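 On cell number change: cells counted by Cell Tracker Red CMTPX staining in the red channel.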 The following applies: BODIPY lipid droplet fluorescence, 18-24 h; for cell number change: measured here: cell count max response, cells fed with added oleic acid. Summed up: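 Drosophila S3 cells loaded with oleic acid (400 uM, as added) and compounds at several concentrations; lipid droplets imaged by 488-nm laser-scanning cytometry, 500–530 nm intensity and object ratio to cell channel. Percent activity normalized to 20 uM Triacsin C.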
In general terms: In qHTS, concentration-response curves come from the screen itself.

[1] abbreviates: measured here: lipid fluorescence (Fed channel) AC50, cells fed with added oleic acid.
[2] abbreviates: measured here: cell number channel AC50, cells fed with added oleic acid.

Turning to `COc1ccc(N2CCN(C(c3cc4cc(C)ccc4[nH]c3=O)c3nnnn3Cc3ccccc3)CC2)cc1` (stereo not drawn), the cell number change was 1.14%. Further, under setting [1], the AC50 was 6.51 µM [rising, single point].

For the molecule `CC1CCN(S(=O)(=O)c2ccc(NC(=S)NC(=O)c3ccc(Cl)cc3)cc2)CC1`, the cell number change was -4.38%. Besides, under setting [1], the AC50 was 1.16 µM [rising, single point].

In the case of `CCOc1ccc(CCNC(=O)CCc2nnc3ccc(N4CCCC4)nn23)cc1OCC`, the cell number change is -28.2%.

Consider `O=C(Nc1cccc(N2C(=O)C=CC2=O)c1)c1cccs1`, for which the cell number change is -95.5%. Moreover, the AC50 under setting [2] is 9.2 µM [falling, partial curve]. Further, under setting [1], the AC50 was 11.6 µM [falling, partial curve].

`Cc1noc(C)c1CSc1nnc2ccccn12`: the cell number change stood at 4.92%. Under setting [1], the AC50 is 7.31 µM [falling, single point].

Consider `COc1ccccc1N1CCN(CC(=O)Nc2c(C)n[nH]c2C)CC1`, for which the cell number change is -4.05%.

As to `Cc1ccc(C)c(OC(=O)C2CSC3(C)CCC(=O)N23)c1C` (stereo not drawn), the cell number change is -14.6%.

On to `CCOC(=O)C1CCN(C(=O)COC(=O)c2nc3nc(C)cc(C)n3n2)CC1`, for which the cell number change stood at 90.2%. Also, under setting [2], the AC50 is 23.1 µM [rising, partial curve]. Moreover, the AC50 under setting [1] was 6.51 µM [rising, single point].

With `COc1cccc(NC(=O)CCCCCN2C(=O)[C@@H]3Cc4ccccc4CN3C2=O)c1`, the cell number change came out at 13.2%. Also, the concentration at half-maximal activity (AC50) under setting [1] was 20.6 µM [rising, single point].

Consider `COC(=O)C1=C(C)NC(C)=C(C(=O)OC)C1c1ccc(OC(=O)c2oc3ccccc3c2C)c(OC)c1`, for which the cell number change was found to be 41.3%. The AC50 under setting [2] was 6.51 µM [rising, partial curve]. The AC50 under setting [1] is 8.2 µM [rising, partial curve].

Regarding `CCOc1ccc(S(=O)(=O)Nc2cc(OC)c(OC)cc2C(=O)O)cc1`, the cell number change was -40.1%. Besides, the AC50 under setting [2] is 29.1 µM [falling, single point]. In addition, under setting [1], the AC50 was 29.1 µM [rising, single point].

As for `S=C(Nc1ccccc1Cl)N1CCCC1`, the cell number change is -25.7%. The AC50 under setting [1] was 2.91 µM [falling, full curve].

For the molecule `Cc1nn(C)c(C)c1NC(=O)CCl`, the cell number change was -11.8%. Besides, the AC50 under setting [1] was 3.66 µM [falling, single point].

As for `O=C(N/N=C/c1cccc(O)c1)c1ccc(NC(=O)C2CCCCC2)cc1`, the cell number change is -26.9%. Further, under setting [1], the AC50 was 0.651 µM [falling, single point].

In the case of `CC(=O)c1cccc(N(C(=O)CNC(=O)c2ccco2)C(C(=O)NC2CCCC2)c2ccco2)c1` (stereo not drawn), the cell number change amounted to 11.7%.

As for `COc1ccccc1S(=O)(=O)Cc1ccc(C(=O)N2CCN(c3ccc(C)cc3)C(C)C2)o1` (stereo not drawn), the cell number change worked out at 52%. The AC50 under setting [2] is 18.4 µM [rising, partial curve, poor fit].

Take `Cc1ccc2nc(NC(=S)NC(=O)c3ccc(OC(C)C)cc3)sc2c1`: the cell number change came out at 5.82%. Moreover, the concentration at half-maximal activity (AC50) under setting [1] was 20.6 µM [rising, partial curve, poor fit].

With `Cc1ccc(N2CC(C(=O)N3CCc4ccccc43)CC2=O)cc1` (stereo not drawn), the cell number change is 18.4%.

As to `CC(NC(=O)c1ccc(S(=O)(=O)N(C)C)cc1)c1ccccc1` (stereo not drawn), under setting [1], the AC50 is 6.51 µM [falling, single point].

Consider `CCc1ccccc1NNC(=O)CCc1ccccc1`, for which the cell number change was -6.21%. Moreover, the AC50 under setting [1] is 0.0651 µM [falling, full curve, poor fit].

For `Cc1cc(C)c(NC(=O)CO/N=C2\CCCc3nonc32)c(C)c1`, the cell number change is -1.13%. Under setting [1], the AC50 is 13 µM [rising, partial curve, poor fit].

`CCOc1ccc(NS(=O)(=O)c2ccc(C(=O)NCC(c3ccco3)N(C)C)cc2)cc1` (stereo not drawn): the cell number change amounted to 95.2%. Moreover, the AC50 under setting [2] was 18.4 µM [rising, partial curve].

Turning to `O=C(/C=C/c1ccco1)Nc1ccc2nn(-c3ccccc3)nc2c1`, the cell number change is -20.4%. Moreover, under setting [1], the AC50 is 10.3 µM [falling, partial curve].

Take `Cc1cc(C(=O)N2CC=C(c3ccccc3)CC2)c2ccccc2n1`: the AC50 under setting [1] is 6.51 µM [rising, partial curve].

As to `CN1CCN(C(=O)c2cc3nc(-c4ccccc4)cc(-c4ccccc4)n3n2)CC1`, under setting [1], the AC50 was 1.84 µM [rising, partial curve].

Consider `Cc1c(OCC(=O)N2CCC(C(=O)O)CC2)ccc2c3c(c(=O)oc12)CCCC3`, for which the cell number change is 37.6%. Further, under setting [2], the AC50 was 9.2 µM [rising, partial curve]. In addition, the AC50 under setting [1] was 6.51 µM [rising, single point].

Turning to `CO/N=C/NC(=O)NOCc1ncc(C(F)(F)F)cc1Cl`, the cell number change was 41.4%. In addition, the AC50 under setting [2] was 25.9 µM [rising, single point].

Regarding `Cn1cccc1Cc1nnc(SCC(=O)Nc2nccs2)n1C`, the cell number change is -85%. The AC50 under setting [2] was 29.1 µM [falling, single point].

For `O=C(O)c1ccc2c(c1)C(=O)/C(=C/c1ccccc1)C2=O`, the cell number change was -1.11%. Further, the AC50 under setting [1] was 0.13 µM [falling, full curve, poor fit].

Take `COc1cccc(CNC(=O)CN(C)S(=O)(=O)c2ccc3c(c2)CC(C)N3C(C)=O)c1` (stereo not drawn): the cell number change came out at 23.4%. The AC50 under setting [1] was 29.1 µM [rising, single point].

`CC(C)n1c(N2CCN(CC(=O)Nc3ccc4c(c3)OCCO4)CC2)nc2ccccc21`: under setting [2], the AC50 was 6.51 µM [rising, single point].

Consider `CCOC(=O)N1CCN(C(=O)CNC(=O)c2ccc(Cl)cc2)CC1`, for which the cell number change is -18.2%. For the same molecule, the concentration at half-maximal activity (AC50) under setting [1] was 29.1 µM [rising, single point].

`O=C(CCN1CCN(c2ccc([N+](=O)[O-])cc2)CC1)c1ccc(Cl)cc1`: the cell number change is 6.61%. The AC50 under setting [1] was 6.51 µM [falling, single point].

`CC(C)Oc1ccc(C(CC(=O)NCCCN(C)C)c2ccc(F)cc2)cc1` (stereo not drawn): the cell number change was 53.9%. In addition, the concentration at half-maximal activity (AC50) under setting [2] is 29.1 µM [rising, single point]. Further, the AC50 under setting [1] is 0.146 µM [rising, full curve, poor fit].

For `CC(=O)N1CCN=C1SCc1cccc(C(F)(F)F)c1`, the cell number change was 14.2%. Also, the AC50 under setting [1] was 29.1 µM [rising, single point].

On to `COc1cc2c(cc1OC)C(C(=O)Nc1ccccc1N1CCN(C)CC1)C1c3ccccc3CCN1C2=O` (stereo not drawn), for which the cell number change is -32.8%. For the same molecule, under setting [2], the AC50 is 18.4 µM [falling, partial curve, poor fit]. The concentration at half-maximal activity (AC50) under setting [1] is 29.1 µM [falling, single point].

As to `COc1ccc(C(NC(=O)CC(C)C)c2c(O)ccc3ccccc23)cc1` (stereo not drawn), the cell number change was -6.48%. For the same molecule, the AC50 under setting [1] is 29.1 µM [falling, single point].

Consider `Cc1c(C)c2c(OCC(=O)NCC(O)c3ccccc3)cc3c(c2oc1=O)CCC(C)(C)O3` (stereo not drawn), for which the cell number change is -16.8%.

Turning to `Cc1ccc(C(=O)Nc2c3c(nn2C(C)(C)C)CS(=O)(=O)C3)cc1C`, the cell number change is 16.2%. Moreover, under setting [1], the AC50 was 16.4 µM [falling, partial curve].

In the case of `COc1ccc(NC(=O)CSC2=NC(=O)CC(C)=N2)cc1`, the cell number change turned out to be 7.47%. Also, the AC50 under setting [1] was 0.184 µM [rising, full curve, poor fit].

Regarding `CCn1c(CCNC(=O)c2ccc(Cl)cc2)n[nH]c1=S`, the AC50 under setting [1] is 1.64 µM [falling, partial curve].

Turning to `CCOc1ccc(Cl)cc1CSc1n[nH]c(CC)n1`, the cell number change turned out to be 29.6%. Moreover, the AC50 under setting [1] is 2.06 µM [rising, partial curve].

`COc1ccc(C(=O)NCC(c2ccco2)N2CCc3ccccc32)cc1` (stereo not drawn): the concentration at half-maximal activity (AC50) under setting [1] is 6.51 µM [rising, single point].

Regarding `N#C/C(=C\c1ccc(-c2cccc([N+](=O)[O-])c2)o1)C(=O)NCCN1CCOCC1`, the cell number change turned out to be 75.5%. Besides, under setting [2], the half-maximal activity concentration (AC50) is 29.1 µM [rising, single point].

With `CCCCS(=O)(=O)Nc1ccc2cn[nH]c2c1`, the cell number change turned out to be 42.3%. In addition, under setting [2], the AC50 is 23.1 µM [rising, single point]. Under setting [1], the AC50 is 20.6 µM [rising, partial curve, poor fit].

With `COCC(=O)NC(c1ccccc1)c1ccccc1`, the cell number change was -71.4%. The AC50 under setting [2] was 29.1 µM [falling, single point].

For `Cc1coc(C)c1C(=O)CC1(O)C(=O)N(CCc2ccccc2)c2ccccc21` (stereo not drawn), the cell number change is -14.6%. The AC50 under setting [1] is 20.6 µM [rising, single point].

With `COc1ccccc1-[n+]1c(C)cc(/C=C2\Sc3ccccc3N2C)cc1C`, under setting [1], the AC50 was 0.411 µM [falling, partial curve].

On to `O=C(NC(O)C(=O)c1ccccc1)c1cccs1` (stereo not drawn), for which the cell number change was -54.3%. In addition, under setting [2], the AC50 was 4.61 µM [falling, full curve]. For the same molecule, the concentration at half-maximal activity (AC50) under setting [1] was 4.11 µM [falling, full curve].

`CCN(CC)CCNC(=O)c1ccc(NC(=O)c2c(C)nn(-c3ccc(F)cc3)c2Cl)cc1`: the cell number change was -7.14%. For the same molecule, the half-maximal activity concentration (AC50) under setting [1] is 29.1 µM [rising, single point].

Regarding `Cc1ccc(S(=O)(=O)c2cc3c(=O)n4cccc(C)c4nc3n(C3CCCCC3)c2=N)cc1`, the cell number change is 34.2%. For the same molecule, under setting [2], the half-maximal activity concentration (AC50) was 0.92 µM [rising, full curve].

As to `CCOC(=O)c1ccccc1Nc1cn(C(C)=O)c2ccccc12`, the concentration at half-maximal activity (AC50) under setting [1] was 3.66 µM [rising, partial curve].

For `O=C1CN(C(=O)c2c(F)cccc2F)C(c2ccc(F)cc2)c2cc(Br)ccc2N1` (stereo not drawn), the cell number change was -22.7%. In addition, under setting [1], the AC50 is 23.1 µM [falling, single point].

With `CCOc1ccc(OCC(=O)OCC(=O)Nc2ccccc2C#N)cc1`, the cell number change was -15.7%.

In the case of `O=C(CCCCCn1c(SCC(=O)c2ccccc2)nc2ccccc2c1=O)NCc1ccco1`, the cell number change is -42.3%. Moreover, the AC50 under setting [2] was 29.1 µM [falling, single point].

Consider `Cc1nnc(NC(=O)c2nc(S(=O)(=O)Cc3ccccc3)ncc2Cl)s1`, for which the cell number change was found to be 7.59%.

For `COc1cccc(-c2nn(C)c3sc(C(=O)NCc4ccc5c(c4)OCO5)cc23)c1`, the cell number change was found to be 14.4%.

Regarding `O=C(c1cc(COc2cccc(C(F)(F)F)c2)on1)N1CCC(c2ccncc2)CC1`, the cell number change is -15.7%. The AC50 under setting [1] was 0.651 µM [falling, full curve, poor fit].

With `O=c1c2ccccc2n(Cc2ccc(F)cc2)c(=O)n1C1CCCC1`, the cell number change amounted to 87.6%. The AC50 under setting [2] is 5.17 µM [rising, full curve]. Further, under setting [1], the half-maximal activity concentration (AC50) was 6.51 µM [rising, full curve].

As for `COC(=O)c1cc(NC(=O)c2cc(-c3ccc(Cl)cc3)oc2C(F)(F)F)ccc1N1CCOCC1`, the cell number change stood at 20.6%. Further, under setting [1], the AC50 was 32.6 µM [rising, single point].

The values above are taken from PubChem BioAssay AID2685 (National Center for Advancing Translational Sciences (NCATS), 2010).
